According to PMC10163288:
Some of the results follow.

B1: il10ra_site1_sap_24_mot_HHH_b2_02116_af2_000000165_0001_41_55_H_._HHH_b1_05383_0001_0000100002_0000001_0_0001 (protein)
chain: SSSSSDEHQIRTHVEAILWFAKWVDNPTALEAMLEAARRYAEELNDEELEELVKKVEEELSSSSS
B2: il10ra_site1_normal_mot_HHH_b2_08186_000000021_0001_43_56_H_._HHH_b1_08707_0001_0000400035_0000001_0 (protein)
chain: SSSSSDIEELLEEAERLAEEGNPEEALRLLQEALRLIFENQDEELLQELWEVLRLVARLSSSSSS
B3: il10ra_site1_sap_29_mot_0eddeacbb14b769e73e254714f31e2f9_0001_af2_000000127_0001_37_51_H_._HHH_b2_03913_af2_0001_0000600015_0000001_0_0001 (protein)
chain: SSSSSDRQEALEVVLHAFRAALRGDREKAEELVEEALEIAEEAGNERLIEMLRRLLKTISSSSSS
B4: il10ra_site1_sap_15_mot_ems_3hM_3349_af2_000000045_0001_25_42_H_._4ed9a5f8f545a7adfbbbb13291f3784e_0001_0001_0000300024_0000001_0_0001_af2pred_dldesign_0_af2pre … (protein)
chain: SSSSDLKKKVEELLAQLRAAQTAEERWNLLVEAYKLAKESKDEELLKKVEEVAKEAAERLSSSSS
B5: il10ra_site1_sap_23_mot_HHH_b1_06788_af2_000000238_0001_19_36_H_._HHH_b1_04268_0001_0000100006_0000002_0_0001 (protein)
chain: SSSSSEEEELAEALIRMIQQAIEHGDEELVEFLLIALEMLAEELNDPELEEELRRLEELINSSSS
B6: il10ra_site1_normal_mot_HHH_b2_00277_af2_000000172_0001_1_17_H_._HHH_b1_05907_0001_0000200015_0000001_0 (protein)
chain: SSSSSSDTEERVEELLEEAKKISDPRHVSHLLIQAYAVANQSNDEELRREVEEVARRLISSSSSS
B7: il10ra_site1_normal_mot_HHH_b1_07256_000000044_0001_1_17_H_._HHH_b1_03517_0001_0000300021_0000001_0 (protein)
chain: SSSDERQEILELIIEAARLLFRGNPEEARKLAEEAEELVEELNDPALQRAVEILKEAIEINSSSS
B8: il10ra_site1_sap_17_mot_HHH_b1_07608_af2_000000080_0001_39_52_H_._HHH_b1_01502_af2_0001_0000400028_0000001_0_0001 (protein)
chain: SSSSSDEEVEERVRELLEELHKVDPQEAYELLREAIELASQNNNPELMREIQEALREWMHSSSSS
B9: il10ra_site1_normal_mot_HHH_b2_07579_000000275_0001_1_19_H_._HHH_b1_01139_af2_0001_0000300023_0000001_0_af2pred_0001 (protein)
chain: SSSSSEEKRKVLELLRKALEIEDKEEAEKVVEEAVRLAEELNDPLAAKLAEMLLEQLEKGSSSSS
B10: il10ra_site1_normal_mot_HHH_b1_00456_000000263_0001_1_17_H_._HHH_b1_03126_0001_0000100016_0000001_1_af2pred_0001 (protein)
chain: SSSSSSEEIQEEVEELLEEAKRIPDPEEAAHFLIRAFALANRLNDPELKELVRKVAIELLSSSSS

molecular target: il10ra, Q13651; test: yeast display titration

Apparent Kd, inactive:
B1 no binding seen, B2 no binding seen, B3 no binding seen, B4 no binding seen, B5 no binding seen, B6 no binding seen, B7 no binding seen, B8 no binding seen, B9 no binding seen, B10 no binding seen
